This note sets out measurements from PubChem BioAssay AID1347423 (Functional Genomics Laboratory (NCATS/FGL), 2020).

The campaign covered roughly 52,000 sequences. About 210 (0.4%) were called active.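 Rule for the calls: active = gene whose silencing raises cell survival under the drug, median off-target-corrected z-score across its silencing RNAs 2 or more; inactive = the rest.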 The list shows a part of the results.

This assay can be described thus: Resistance to Poly (ADP-Ribose) Polymerase inhibitor: Gene Identification via Genome-wide siRNA Screen. To be noted: mouse BRCA2 R2336H ES cells, olaparib, CellTiter-Glo viability; hits give high values. In short, it runs like this:
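Mouse BRCA2 R2336H ES cells were reverse-transfected with siRNA (20 nM final), treated at 48 h with 500 nM olaparib, and read by CellTiter-Glo after 72 h. Scores: MAD-based z per siRNA, median per gene, seed off-target correction.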
Consider GGAGAAUCAUGGACAGCUGTT against Olfr2, for which the z-score was inactive: -1.02.

Consider GGCUGAGAUCUAGCUUACATT against Hist2h3c2, for which the z-score was inactive: -0.0286.

GGACAUUGUCCUGAAUGGCTT against Hsd3b3: the z-score was inactive: -0.372.

Consider GGAGAGCAUUUCUUAAGAATT against Pex14, for which the z-score is inactive: -0.976.

As to “CCAAAAGUCCGAUAUGAAATT against D14Ertd231e”, the z-score is inactive: -1.57.

In the case of GAAUGCUAUUAGGAAACUGTT against Olfr1226, the z-score is inactive: -0.137.

With UUUUGCUGAAUGGUAUGUATT against Cpsf6, the z-score is inactive: 0.3.

Regarding GCCAGAAGUCCGAUACUACTT against Plk2, the z-score was inactive: -0.0495.

Take CGAGUUCCCUAUCAAUCUCTT against Flrt1: the z-score was inactive: 0.164.

In the case of “GGGAGAAAAAGGCAUUUUUTT against 1110038F21Rik”, the z-score is inactive: 1.68.

For GGAGCUAGAGUGCUCAAGATT against Ceacam14, the z-score was inactive: 1.3.

Consider GUUUCUGGGUGAGCGCGAUTT against Fzd2, for which the z-score is inactive: -1.19.

Consider AGCUCCAUCCUAAUGAGGUTT against Klk22, for which the z-score was inactive: -0.923.

With GGCCAAGGAAAGUAUGAAUTT against Sox7, the z-score was inactive: 0.616.

For the sequence GGACAUGUACAGACCUCACTT against Cacng5, the z-score was inactive: -0.402.

“GCCAUUUCAUACAUUUUACTT against C630028L02Rik”: the z-score is inactive: 2.

Take CGGACUCAAGCUUGUGAAATT against Bk: the z-score was inactive: -0.508.

With GGCUUACCAAUGUGAAUGGTT against Trpv5, the z-score was inactive: -0.397.

As to GGAAUCUUUAGACCAUCUCTT against Myh1, the z-score was inactive: 1.77.

For the sequence GAACUACUACCGCUUAGCATT against Mrs2l, the z-score was inactive: -0.336.

As to GCUGACUCUUAGAUAAAUATT against Seh1l, the z-score is inactive: -1.2.

For CCAAUUUGUCAAAACAAUCTT against Slit2, the z-score is inactive: 1.22.

For the sequence GGCUUCUACACAUGGGAUGTT against Rnaset2, the z-score was inactive: -0.673.

On to “GGAAGAUUUUUCAAGAAAGTT against 4833420K19Rik”, for which the z-score was inactive: 1.71.

On to “GGAAGAAACAGGGAUUGAUTT against 5330438E18Rik”, for which the z-score was inactive: -0.473.

Consider CGGUCCUUUUUAAACACUUTT against BC011468, for which the z-score was inactive: -0.208.

GCCUGUUCGGUGUUCAACUTT against Etv3: the z-score is inactive: -0.395.

As to GUCCAGUAACAUGCAUGAGTT against Defb6, the z-score is inactive: -2.58.

For the sequence “GGAAAAGAUUGUCUUGUCCTT against 0710005M24Rik”, the z-score is inactive: -0.571.

GGCAACUGAAUGUUUCCUATT against D7Rp2e: the z-score is inactive: -0.333.

As for GCUCUAGACAUAUGAGGCUTT against BC052883, the z-score is inactive: 0.828.

For “GGCAUGUAUCAUUUUGUCATT against E430028B21Rik”, the z-score is inactive: 0.11.

GGAUAAAGAGUUUUACAGATT against Prg: the z-score is inactive: 0.102.

For the sequence GGACUGUGAAAAGAUGUACTT against Tmprss8, the z-score is inactive: 0.0642.

In the case of “GGACCUGAAUCCUCCCAAATT against G431001E03Rik”, the z-score was inactive: 0.202.

In the case of CGAACCAGGAAAUGGAUUCTT against Crhbp, the z-score was inactive: 1.04.

For the sequence GGUUACCAGUUAUAUGGCGTT against Mccc2, the z-score is inactive: 0.75.

Turning to “CGGAAGGAAGUGCCUAAACTT against 2610510H01Rik”, the z-score was inactive: -0.665.

On to GUAGGAAGGAGUGAGCAUUTT against Rslcan24, for which the z-score is inactive: 0.00982.

For CCGAGAGGAUCGUAUAUCATT against Plcg1, the z-score is inactive: 0.712.

For GGGACAAUUCAGGAUGGAGTT against Tg737Rpw, the z-score was inactive: 0.351.

On to CCUUCGACUAUUCUUACUGTT against Kif1c, for which the z-score was inactive: -0.0667.

“GGAAAAGAGUGAGAUUCAGTT against 4632409L19Rik”: the z-score is inactive: 3.08.

For the sequence GACAUACACCUCACCUUGUTT against Hoxa6, the z-score is inactive: 0.0073.

In the case of GCCAGGUGGAACCAAGUAUTT against Zcchc17, the z-score was inactive: -2.9.

For GGUCUAGCUGCAUUGUUUGTT against Lgals8, the z-score is inactive: 0.757.

Turning to GAAGAUCUUUCCCAUGGGUTT against Psmb3, the z-score is inactive: -2.96.

In the case of “GGAAGCCAUGUUUGGAAGATT against 1110014K05Rik”, the z-score was inactive: 0.959.

Take GGUACAAACAAGAUGUGGATT against Smc5l1: the z-score was inactive: -0.662.

Regarding GGAACUUUGUGAAGGAAGCTT against Cog8, the z-score is inactive: -0.446.

For CCAGUAAACCGAGACCAUUTT against Nsfl1c, the z-score was inactive: 1.53.

For GGUAUAUGUCACCAUACUCTT against Phxr2, the z-score is inactive: -0.404.

Consider CCUGUGUCUAUAUUCUUAGTT against Tep1, for which the z-score was inactive: -1.3.

For CCUAGAGCUUUUUAUAACATT against 7-Sep, the z-score was inactive: 0.855.

With “CGUUUCAACAAGCUCGUGUTT against 1700012H05Rik”, the z-score is inactive: -1.34.

For the sequence GGUAAUUGAGAAAUUUGAGTT against AA536749, the z-score was inactive: -0.339.

GCGUAGACAAAAAACUAUCTT against F13b: the z-score was inactive: -0.0775.

Regarding GGAUCAUCAAGAUAUAGAUTT against Trpm7, the z-score is inactive: 2.01.

As to CGGAAUCAUUCGGAAUGAGTT against Capza3, the z-score is inactive: 0.244.

Turning to “GGGCUUUAUUCAUCCACUCTT against 1700067P10Rik”, the z-score is inactive: 1.42.

Consider GGAAGUGAUGCAUAAAUACTT against Ppef2, for which the z-score is inactive: -0.697.

Regarding CGCAGUGCACAUCAAGGGATT against Lfng, the z-score was inactive: 0.589.

For GGAACAUCCAGUCUCUCACTT against Fbxo31, the z-score was inactive: 0.758.

For the sequence GGACAAGGUGGAUAAAAGUTT against Cttn, the z-score is inactive: -1.

As to GGAGAUCAGGCUGUUCACATT against Mei1, the z-score is inactive: -1.12.

For the sequence “GCACAGUGGUGUUAAAUAGTT against 2510009E07Rik”, the z-score was inactive: -1.57.

Regarding “GCCUGAAGCAAGACAAGAUTT against 1110014F24Rik”, the z-score is inactive: 2.02.

In the case of CCGACUCCCAUCUUGUGAATT against BC018371, the z-score is inactive: -1.63.

Take GUCACCCGCUCAAAUCAGATT against Hist2h2be: the z-score is inactive: 1.35.

For GCUUAAGGUUAUUUGCUUGTT against Cct7, the z-score is inactive: -0.0754.

For “GGCCUUCAAAUCAUACGCUTT against 1700025F22Rik”, the z-score is inactive: 0.463.

Turning to “GCCGUACUUUCUGAGAUUATT against 2810403P18Rik”, the z-score was inactive: -0.75.

For the sequence “GGCUAGAAUUCAGAGUUAATT against 9830132L24”, the z-score is inactive: 2.35.

Turning to “GGAAUAAAGCUACAUUGUUTT against 6530401L14Rik”, the z-score was inactive: 0.892.

Take GGAGAAGAAAGAAGUUAAATT against Mtap1b: the z-score was inactive: -0.17.

For GGAGGAGUUCUGCAUCUACTT against Syngr1, the z-score was inactive: -0.61.

Consider GCAUGUCCCAUCAAUGGUCTT against Akr1d1, for which the z-score is inactive: -0.606.

Consider ACAGAUUUUACUUUAACAUTT against Olfr1228, for which the z-score is inactive: 1.73.

For the sequence GGAUAUAUACACGGAGAACTT against Card15, the z-score is inactive: -0.0373.

“GCCUUAGGCCUUUGUUUCCTT against 5730494M16Rik”: the z-score was inactive: 0.0938.

Take “GGCAUAUGCUGGAGUUAUCTT against 2210018M11Rik”: the z-score is inactive: -0.941.

GGUGAACGACUCCAUGUAUTT against Pvrl1: the z-score was inactive: -1.38.

In the case of “GCUGUUCCUAUUUCAUGACTT against A430065P19Rik”, the z-score is inactive: 0.0951.

With “GGAAGUCAAGGUGAUUUCATT against 1110017C15Rik”, the z-score was inactive: -1.4.

As to GGGACUUUGCCAAGAAUACTT against Klkb1, the z-score is inactive: -2.71.

As to “GCUGGCAGUUUGUAAGUAGTT against 6230409E13Rik”, the z-score is inactive: -0.925.

For “GGAUAUUUGUCAUUUCCUUTT against 1110063G11Rik”, the z-score was inactive: 1.78.

Take GGUUUUUCAGUGACACAUGTT against V1ri1: the z-score is inactive: -1.04.

As for GCUGAAUGCCCAAUGCACUTT against Gabra1, the z-score was inactive: 0.0291.

For GGACAAACUCCGAGACUCCTT against Utf1, the z-score is inactive: -0.408.

GGUUAGCUUCUUAAAACCATT against Sacy: the z-score is inactive: -0.0897.

Take “GGACUUCAUAUUAGCAUGUTT against 1300012G16Rik”: the z-score is inactive: 0.873.

In the case of GGUUCCAAGAACCCUCAUCTT against Swap70, the z-score was inactive: 0.364.

Take GGAGAAAAUUGUCAAGAAGTT against Wdr10: the z-score is inactive: 0.0722.

Regarding GGUGUUAGCGAAAUGCUCATT against Prlpn, the z-score is inactive: -1.33.

Turning to GGCUUACAGUCCUGAAUUUTT against Gpr17, the z-score is inactive: 1.08.

With GGUGAACUUGACCUCACAGTT against Sp1, the z-score is inactive: -2.38.

With GCAUGUACGUCGCCUUGUUTT against Dctd, the z-score was inactive: -2.39.

Regarding GCCUUUGCUGAGAUAACUUTT against Birc5, the z-score was inactive: -1.72.

As for “GGAUCGCUGGUGUGUUUUUTT against A530023G15Rik”, the z-score is inactive: 0.477.

On to “GGAAGUAUUAACAAUGGUGTT against 4632411J06Rik”, for which the z-score is inactive: -0.317.

On to GGCAUUUGGGACUUGUGUGTT against Olfr78, for which the z-score was inactive: -0.193.

For GGCAGUAACUUAAAACAGATT against Mecp2, the z-score was inactive: 0.261.
